This continues a long series; more values of the same kind are listed elsewhere.
Tested on: L. acidophilus NCFM
Experiment: RNA-seq transcriptional analysis of L. acidophilus NCFM growing on plant glycosides
Assay type: cell-based, Lactobacillus acidophilus
[1] = LBA0160 Anaerobic ribonucleoside triphosphate reductase, COG F
[2] = LBA0197 Oligopeptide binding protein, COG E
[3] = LBA0198 Peptide binding protein, COG E
[4] = LBA0225 6-p-beta-glucosidase, COG G
[5] = LBA0227 Celiohiose-specific PTS IIC, COG G
[6] = LBA0228 Transcriptional regulator, COG G
[7] = LBA0455 Mannose-specific PTS system component IIC, COG G
[8] = LBA0456 Mannose-specific PTS system component IID, COG G
[9] = LBA0491 Cellobiose-specific PTS IIC, COG G
[10] = LBA0503 ABC transporter permease, COG G
[11] = LBA0606 PTS system arbutin-like IIBC component, COG G
[12] = LBA0609 PTS enzyme II ABC component, COG G
[13] = LBA0680 Glycogen branching enzyme, COG G
[14] = LBA0681 Glucose-1-phosphate adenylyltransferase, COG G
[15] = LBA0682 Glucose-1-phosphate adenylyltransferase, COG G
[16] = LBA0683 Glycogen synthase, COG G
[17] = LBA0685 Glycogen phosphorylase, COG G
[18] = LBA0686 Amylopullulanase, COG G
[19] = LBA0687 Phosphoglucomutase, COG G
[20] = LBA0724 Transcription antiterminator, COG G
[21] = LBA0726 Phospho-beta-galactosidase II, COG G
[22] = LBA0874 Phospho-beta-galactosidase I, COG G
[23] = LBA0875 Transcriptional regulator, COG G
[24] = LBA0876 Cellobiose-specific PTS IIC, COG G
[25] = LBA0877 Cellobiose-specific PTS IIA, COG G
[26] = LBA0986 Galactose mutarotase related ensyme, COG G
[27] = LBA1102 Transmembrane protein, COG G
[28] = LBA1400 Oligopeptide ABC transporter substrate binding protein, COG E
[29] = LBA1433 Dihydroxyacetone kinase, COG G
[30] = LBA1434 Dihydroxyacetone kinase, COG G

O=c1ccc2cc(O[C@@H]3O[C@H](CO)[C@@H](O)[C@H](O)[C@H]3O)c(O)cc2o1 [Esculin]
Log2 differential normalized TPM ratio compared to glucose (LBA0146 PTS system HA, COG G): 1.3
Log2 differential normalized TPM ratio compared to lactose (LBA0146 PTS system HA, COG G): −0.3
Transcripts per million (rpm) (LBA0146 PTS system HA, COG G): 20.2 rpm
Log2 differential normalized TPM ratio compared to glucose [1]: −0.3
Log2 differential normalized TPM ratio compared to lactose [1]: −1.2
Transcripts per million (rpm) [1]: 146 rpm
Log2 differential normalized TPM ratio compared to glucose [2]: 0.9
Log2 differential normalized TPM ratio compared to lactose [2]: 3.1
Transcripts per million (rpm) [2]: 126.9 rpm
Log2 differential normalized TPM ratio compared to glucose [3]: 0.2
Log2 differential normalized TPM ratio compared to lactose [3]: 3.2
Transcripts per million (rpm) [3]: 50.6 rpm
Log2 differential normalized TPM ratio compared to glucose [4]: −0.2
Log2 differential normalized TPM ratio compared to lactose [4]: 0.1
Transcripts per million (rpm) [4]: 24.4 rpm
Log2 differential normalized TPM ratio compared to glucose [5]: 0.8
Log2 differential normalized TPM ratio compared to lactose [5]: 0.5
Transcripts per million (rpm) [5]: 6.5 rpm
Log2 differential normalized TPM ratio compared to glucose [6]: 0.9
Log2 differential normalized TPM ratio compared to lactose [6]: 0.8
Transcripts per million (rpm) [6]: 27.3 rpm
Log2 differential normalized TPM ratio compared to glucose [7]: 2.3
Log2 differential normalized TPM ratio compared to lactose [7]: 1.2
Transcripts per million (rpm) [7]: 1425.6 rpm
Log2 differential normalized TPM ratio compared to glucose [8]: 2.3
Log2 differential normalized TPM ratio compared to lactose [8]: 1.2
Transcripts per million (rpm) [8]: 2482.1 rpm
Log2 differential normalized TPM ratio compared to glucose [9]: 3.4
Log2 differential normalized TPM ratio compared to lactose [9]: 1.3
Transcripts per million (rpm) [9]: 81.2 rpm
Log2 differential normalized TPM ratio compared to glucose [10]: 2.4
Log2 differential normalized TPM ratio compared to lactose [10]: 1.2
Transcripts per million (rpm) [10]: 17.4 rpm
Log2 differential normalized TPM ratio compared to glucose (LBA0505 Fructosidase, COG G): 2.2
Log2 differential normalized TPM ratio compared to lactose (LBA0505 Fructosidase, COG G): 1.3
Transcripts per million (rpm) (LBA0505 Fructosidase, COG G): 17.1 rpm
Log2 differential normalized TPM ratio compared to glucose [11]: 2.8
Log2 differential normalized TPM ratio compared to lactose [11]: 0.5
Transcripts per million (rpm) [11]: 30.7 rpm
Log2 differential normalized TPM ratio compared to glucose [12]: 2.8
Log2 differential normalized TPM ratio compared to lactose [12]: 1.2
Transcripts per million (rpm) [12]: 370.1 rpm
Log2 differential normalized TPM ratio compared to glucose [13]: 1.3
Log2 differential normalized TPM ratio compared to lactose [13]: 0.3
Transcripts per million (rpm) [13]: 168.7 rpm
Log2 differential normalized TPM ratio compared to glucose [14]: 2.4
Log2 differential normalized TPM ratio compared to lactose [14]: 0.6
Transcripts per million (rpm) [14]: 226.7 rpm
Log2 differential normalized TPM ratio compared to glucose [15]: 2.4
Log2 differential normalized TPM ratio compared to lactose [15]: 0.6
Transcripts per million (rpm) [15]: 280.1 rpm
Log2 differential normalized TPM ratio compared to glucose [16]: 2.5
Log2 differential normalized TPM ratio compared to lactose [16]: 0.6
Transcripts per million (rpm) [16]: 356.1 rpm
Log2 differential normalized TPM ratio compared to glucose [17]: 2.7
Log2 differential normalized TPM ratio compared to lactose [17]: 0.8
Transcripts per million (rpm) [17]: 412 rpm
Log2 differential normalized TPM ratio compared to glucose [18]: 2.8
Log2 differential normalized TPM ratio compared to lactose [18]: 1
Transcripts per million (rpm) [18]: 472.5 rpm
Log2 differential normalized TPM ratio compared to glucose [19]: 2.1
Log2 differential normalized TPM ratio compared to lactose [19]: 0.3
Transcripts per million (rpm) [19]: 532.6 rpm
Log2 differential normalized TPM ratio compared to glucose [20]: 5.5
Log2 differential normalized TPM ratio compared to lactose [20]: 3.6
Transcripts per million (rpm) [20]: 1362.9 rpm
Log2 differential normalized TPM ratio compared to glucose (LBA0725 PTS EII system, COG G): 9.8
Log2 differential normalized TPM ratio compared to lactose (LBA0725 PTS EII system, COG G): 7.1
Transcripts per million (rpm) (LBA0725 PTS EII system, COG G): 1673.1 rpm
Log2 differential normalized TPM ratio compared to glucose [21]: 6.9
Log2 differential normalized TPM ratio compared to lactose [21]: 4.2
Transcripts per million (rpm) [21]: 2576.8 rpm
Log2 differential normalized TPM ratio compared to glucose [22]: 1.7
Log2 differential normalized TPM ratio compared to lactose [22]: 0.5
Transcripts per million (rpm) [22]: 49.2 rpm
Log2 differential normalized TPM ratio compared to glucose [23]: 1.3
Log2 differential normalized TPM ratio compared to lactose [23]: 0.9
Transcripts per million (rpm) [23]: 31.2 rpm
Log2 differential normalized TPM ratio compared to glucose [24]: 2.9
Log2 differential normalized TPM ratio compared to lactose [24]: 0
Transcripts per million (rpm) [24]: 776.8 rpm
Log2 differential normalized TPM ratio compared to glucose [25]: 3
Log2 differential normalized TPM ratio compared to lactose [25]: −0.1
Transcripts per million (rpm) [25]: 501.6 rpm
Log2 differential normalized TPM ratio compared to glucose (LBA0911 Aminopeptidase, COG E): 2.7
Log2 differential normalized TPM ratio compared to lactose (LBA0911 Aminopeptidase, COG E): 1.6
Transcripts per million (rpm) (LBA0911 Aminopeptidase, COG E): 1141.5 rpm
Log2 differential normalized TPM ratio compared to glucose [26]: 2
Log2 differential normalized TPM ratio compared to lactose [26]: 1.4
Transcripts per million (rpm) [26]: 379.4 rpm
Log2 differential normalized TPM ratio compared to glucose (LBA1022 Arginase, COG E): 2.3
Log2 differential normalized TPM ratio compared to lactose (LBA1022 Arginase, COG E): 2.1
Transcripts per million (rpm) (LBA1022 Arginase, COG E): 1342.6 rpm
Log2 differential normalized TPM ratio compared to glucose (LBA1055 Mutator protein, COG F): −1.4
Log2 differential normalized TPM ratio compared to lactose (LBA1055 Mutator protein, COG F): −1.1
Transcripts per million (rpm) (LBA1055 Mutator protein, COG F): 5.8 rpm
Log2 differential normalized TPM ratio compared to glucose [27]: 2.6
Log2 differential normalized TPM ratio compared to lactose [27]: 1.3
Transcripts per million (rpm) [27]: 226.4 rpm
Log2 differential normalized TPM ratio compared to glucose [28]: −1.1
Log2 differential normalized TPM ratio compared to lactose [28]: −2.1
Transcripts per million (rpm) [28]: 5.2 rpm
Log2 differential normalized TPM ratio compared to glucose [29]: 3.7
Log2 differential normalized TPM ratio compared to lactose [29]: 1.1
Transcripts per million (rpm) [29]: 80.6 rpm
Log2 differential normalized TPM ratio compared to glucose [30]: 4.5
Log2 differential normalized TPM ratio compared to lactose [30]: 1.2
Transcripts per million (rpm) [30]: 85.7 rpm

— patent US20200222474A1, “COMPOSITIONS AND METHODS FOR INCREASING PHYTOCHEMICAL BIOAVAILABLITY AND BIOACTIVITY” (North Carolina State University, priority 2017, published 2020)
